{"source": "patent US20230218663A1", "about": "“COMPOSITIONS AND METHODS FOR TREATING A SARS-COV-2 INFECTION” (priority 2020, published 2023)", "system": "SARS-CoV-2", "assay": "Golden Syrian hamster model, intraperitoneal treatment", "note": "At least one structure is not confirmed: it was looked up by name or label, or the drawing left a doubt.", "data": [{"smiles": "CCC(CC)COC(=O)[C@H](C)N[P@](=O)(OC[C@H]1O[C@@](C#N)(c2ccc3c(N)ncnn23)[C@H](O)[C@@H]1O)Oc1ccccc1", "note": "[remdesivir, Remdesivir]", "values": [{"measurement": "live SARS-CoV-2 particles in respiratory tract (TCID50)", "setting": "4 dpi", "result": "suppression of live SARS-CoV-2 particles"}, {"measurement": "mRNA expression of cytokines/chemokines (IFN-γ, IL-10, CCR4) in lung", "setting": "4 dpi, versus vehicle (DMSO) group", "result": "generally lower but statistically non-significant"}, {"measurement": "lung histology (H&E)", "setting": "4 d.p.i.", "result": "improved morphology but a mild degree of bronchiolar wall infiltration and vessel wall infiltration"}, {"measurement": "N protein expression in alveolar tissue (immunofluorescence)", "setting": "hamster lungs after treatment", "result": "diminished N protein expression"}]}]}
